Some of these results come from one statement about several compounds together.
Experiment: Thermal stability evaluation (TG/DTA)
Assay type: physicochemical
Details: 30-130° C., 10 K/min, nitrogen; listed as amorphous of free form
Procedure: Thermal stability was evaluated by using a thermogravimetry/differential thermal analyzer TG/DTA7200 (SII NanoTechnology Inc.) under the following conditions. • Rate of temperature increase: 10 K/min • Atmosphere: nitrogen 200 mL/min <Hygroscopicity or Deliquescency Evaluation>

For COC[C@H]1CN(C(=O)[C@]2(F)CN(C3CCCC3)C[C@H]2c2ccc(OC)cc2)C[C@@H]1c1ccc(C(F)(F)F)cc1N1CCC(C(=O)O)CC1 [Amorphous of free form, 1-{2-[(3S,4R)-1-[(3R,4R)-1-cyclopentyl-3-fluoro-4-(4-methoxyphenyl)pyrrolidine-3-carbonyl]-4-(methoxymethyl)pyrrolidin-3-yl]-5-(trifluoromethyl)phenyl}piperidine-4-carboxylic acid], which “Thermal stability TG: weight change” value is on record?
The value was at least 2%.

— US12077524B2, “Crystal of pyrrolidine compound” (MITSUBISHI TANABE PHARMA CORPORATION, priority 2018, dated 2024)
